The test has as its target Myc2-PGM2 (tandem Myc epitope fusion of PGM2) (Toxoplasma gondii). The test can be described thus: co-IP; lysate of extracellular parasites (1x PBS, 0.25% NP-40, 400 mM NaCl, Benzonase, protease inhibitors); Myc2-PGM2 captured on 9E10 anti-Myc magnetic beads, three washes with lysis buffer, eluate blotted with PRP1 antiserum.

No constants are given. Whether binding was seen depends on the method and setting. Binding seen in cells or lysates may run through a third protein. Where a sequence is shown, tags or fusion partners need not be part of it.

B1: parafusin-related protein 1 (PRP1) (protein, UniProt Q95WU0 1-637)
chain: MGAKASRMRTKEEACRGSANPSHKGLPADQILSRPTTAYQDQKPGTSGLRKKTKVFMQKDYLANFAQSVFNCLPEEEKKGGTLLVSGDGRFFSHEAIYEICSIAAGNGVGRVWIGLNGLASTPACSAIIRERENGICFGGFLLTASHNPGGIDEDFGVKYDTANGAPGYEALMNEVWEKSKTISTIKYAKLPKFSIDKLGVQVNIDGAFQVEVIDPIEDWLKLMKEAFHFPAIKRLLALPHFSFVYDSMHGVSGPYAEKLFIEEFGAKRECLMRQDPLPDFGGHHPDPNLTYAEELVAKMKVLHPDQVDASTPLFGAAGDGDCDRNMILGRGFFVTPSDSVALIALYAEKCIPYFFVDKATGKGGLTGLARSMPTSRALDNVAKKLNKDVYETPTGWKYFTNLMDASRISICGEESFGTGSVHVREKDGLWAVLAWLSILAYRNGCMGDVEKERELLQEGKSVDVSPPATKETDFVSVQQIVEEFWKEYGRNFYCRYDFENKDSASAHEMLQALEELSKSSPAEITGKVASHVDENLLKEMEIDSMDWFKYTDPVDKQVSDHQGVRLFLKGGSRIIWRLSGTGSTGATIRVYMERYEPDASKVLQDERTALKDIAAFALQFCDMKKYIGTETPTVIT
With B1, the binding entry is on record as “no binding”.

Values taken from paper PMC5705807.
